The list shows a part of the results. Single values are uncertain, as repeats are few or missing.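 The apoptosis fraction was the count of cleaved-PARP antibody-stained nuclei relative to all DNA-stained nuclei, imaged in 1,536-well plates. Screening doses were set so most cells survived, and baseline and induced cleaved-PARP levels vary greatly across cell lines.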
Columns and labels:
Test in all cases: cleaved PARP positive nuclei fraction relative to DMSO control; melanoma cells; higher = more apoptosis
Conditions in all cases: library dose: low library concentration; 72 h
MZ2-MEL = test system: MZ2-MEL
MeWo = test system: MeWo
RPMI7951 = test system: RPMI7951
RVH-421 = test system: RVH-421
SkMel28 = test system: SkMel28
SkMel2 = test system: SkMel2
SkMel30 = test system: SkMel30
SkMel5 = test system: SkMel5
UACC257 = test system: UACC257
UACC62 = test system: UACC62
WM115 = test system: WM115
WM1716 = test system: WM1716
WM1745 = test system: WM1745
WM3526 = test system: WM3526
WM3619 = test system: WM3619
WM451Lu = test system: WM451Lu

Structure (SMILES) | cleaved PARP positive nuclei fraction (MZ2-MEL) [%] | cleaved PARP positive nuclei fraction (MeWo) [%] | cleaved PARP positive nuclei fraction (RPMI7951) [%] | cleaved PARP positive nuclei fraction (RVH-421) [%] | cleaved PARP positive nuclei fraction (SkMel28) [%] | cleaved PARP positive nuclei fraction (SkMel2) [%] | cleaved PARP positive nuclei fraction (SkMel30) [%] | cleaved PARP positive nuclei fraction (SkMel5) [%] | cleaved PARP positive nuclei fraction (UACC257) [%] | cleaved PARP positive nuclei fraction (UACC62) [%] | cleaved PARP positive nuclei fraction (WM115) [%] | cleaved PARP positive nuclei fraction (WM1716) [%] | cleaved PARP positive nuclei fraction (WM1745) [%] | cleaved PARP positive nuclei fraction (WM3526) [%] | cleaved PARP positive nuclei fraction (WM3619) [%] | cleaved PARP positive nuclei fraction (WM451Lu) [%]
CC[C@]1(O)C[C@H]2CN(CCc3c([nH]c4ccccc34)[C@@](C(=O)OC)(c3cc4c(cc3OC)N(C=O)[C@H]3[C@@](O)(C(=O)OC)[C@H](OC(C)=O)[C@]5(CC)C=CCN6CC[C@]43[C@@H]65)C2)C1 [vincristine] + N#Cc1c(O)c2c(-c3ccc(-c4ccccc4O)cc3)csc2[nH]c1=O [A769662] (first compound 0.0001 µM, partner dose 2 µM) | 139 | 206 | 115 | 176 | 147 | 87.7 | 99.8 | 91.9 | 96.4 | 133 | 1220 | 101 | 103 | 87.3 | 156 | 163
CC[C@]1(O)C[C@H]2CN(CCc3c([nH]c4ccccc34)[C@@](C(=O)OC)(c3cc4c(cc3OC)N(C=O)[C@H]3[C@@](O)(C(=O)OC)[C@H](OC(C)=O)[C@]5(CC)C=CCN6CC[C@]43[C@@H]65)C2)C1 [vincristine] + CCN(CC)CCCCNc1ncc2cc(-c3cc(OC)cc(OC)c3)c(NC(=O)NC(C)(C)C)nc2n1 [PD173074] (first compound 0.0001 µM, partner dose 0.1 µM) | 85.9 | 70.6 | 126 | 61.8 | 125 | 94.3 | 244 | 158 | 64.4 | 66.7 | 913 | 257 | 106 | 149 | 112 | 399
Cc1cc(Nc2cc(N3CCN(C)CC3)nc(Sc3ccc(NC(=O)C4CC4)cc3)n2)n[nH]1 [Tozasertib] + Oc1nc(-c2ccc(C(F)(F)F)cc2)nc2c1CSCC2 [XAV939] (first compound 0.006 µM, partner dose 2 µM) | 98.9 | 89.6 | 231 | 62.6 | 115 | 130 | 39.2 | 97.5 | 167 | 171 | 168 | 338 | 120 | 78.2 | 111 | 122
CCCCCCCCCCCCCCCCCCOP(=O)([O-])OC1CC[N+](C)(C)CC1 [Perifosine] + O=C(O)C(=O)Nc1sc2c(c1C(=O)O)CCNC2 [TCS401] (first compound 0.4 µM, partner dose 1.66667 µM) | 129 | 70.1 | 90.7 | 223 | 128 | 63.3 | 42.6 | 85.1 | 126 | 98.9 | 122 | 74 | 114 | 72.6 | 114 | 40.1
Cc1cn(-c2cc(NC(=O)c3ccc(C)c(Nc4nccc(-c5cccnc5)n4)c3)cc(C(F)(F)F)c2)cn1 [nilotinib] + CC(C)CCN1c2nc(Nc3cc(F)c(O)c(F)c3)ncc2N(C)C(=O)C1C [BID1870] (first compound 0.2 µM, partner dose 0.2 µM) | 43.1 | 349 | 33.7 | 161 | 191 | 200 | 196 | 76.9 | 153 | 185 | 153 | 24.5 | 103 | 70.7 | 81.8 | 130
O=c1[nH]nc(Sc2ncc([N+](=O)[O-])s2)n1-c1ccc2c(c1)OCCO2 + COc1cc2c(Oc3ccc4[nH]c(C)cc4c3F)ncnc2cc1OCCCN1CCCC1 [cediranib] (first compound 0.2 µM, partner dose 0.4 µM) | 98.9 | 176 | 34 | 70.5 | 26.9 | 87.2 | 73.7 | 95.8 | 95.9 | 72.4 | 98.1 | 284 | 96.2 | 55.7 | 80.5 | 57.7
O=C(Nc1cc(C(F)(F)F)cc(C(F)(F)F)c1)c1cc(Cl)ccc1O + CN(C)S(=O)(=O)c1ccc2c(c1)/C(=C/c1cc3c([nH]1)CCCC3)C(=O)N2 [SU6656] (first compound 0.016 µM, partner dose 0.4 µM) | 111 | 82.3 | 46.2 | 86.8 | 219 | 83.8 | 55.9 | 207 | 264 | 230 | 260 | 152 | 95.9 | 81.9 | 80.3 | 566
O=c1[nH]nc(Sc2ncc([N+](=O)[O-])s2)n1-c1ccc2c(c1)OCCO2 + c1cc(-c2cnn3cc(-c4ccc(OCCN5CCCCC5)cc4)cnc23)ccn1 [Dorsomorphin] (first compound 0.2 µM, partner dose 0.4 µM) | 34.8 | 32 | 37.8 | 112 | 109 | 16.4 | 216 | 82.4 | 179 | 80 | 108 | 20.6 | 105 | 322 | 85.1 | 33.8
COc1cc([C@@H]2c3cc4c(cc3[C@@H](O[C@@H]3O[C@@H]5CO[C@@H](C)O[C@H]5[C@H](O)[C@H]3O)[C@H]3COC(=O)[C@H]23)OCO4)cc(OC)c1O [etoposide] + OCCn1cc(-c2cnc3nnn(Cc4ccc5ncccc5c4)c3n2)cn1 [PF04217903] (first compound 0.02 µM, partner dose 1 µM) | 145 | 72 | 164 | 45 | 97.6 | 80 | 66.9 | 69.9 | 47.4 | 121 | 102 | 106 | 86.3 | 44.8 | 110 | 29.5
N#CC[C@H](C1CCCC1)n1cc(-c2ncnc3[nH]ccc23)cn1 [ruxolitinib] + CN(C)S(=O)(=O)c1ccc2c(c1)/C(=C/c1cc3c([nH]1)CCCC3)C(=O)N2 [SU6656] (first compound 1 µM, partner dose 0.4 µM) | 154 | 59.2 | 114 | 118 | 95.6 | 20.8 | 61.4 | 72.9 | 102 | 87.8 | 61.2 | 130 | 103 | 177 | 90.2 | 87.6
O=C(Nc1cc(C(F)(F)F)cc(C(F)(F)F)c1)c1cc(Cl)ccc1O + CC1(C)NC(=O)N(c2ccc([N+](=O)[O-])c(C(F)(F)F)c2)C1=O [nilutamide] (first compound 0.016 µM, partner dose 1 µM) | 26.1 | 85 | 246 | 171 | 107 | 92.6 | 66.1 | 76.4 | 126 | 124 | 102 | 43.5 | 82.2 | 98.8 | 80.5 | 52.5
O=c1[nH]nc(Sc2ncc([N+](=O)[O-])s2)n1-c1ccc2c(c1)OCCO2 + COc1ccc2c(c1)CCC1C2CCC2(C)C(NCCCCCCN3C(=O)C=CC3=O)CCC12 [U73122] (first compound 0.2 µM, partner dose 0.4 µM) | 336 | 65.6 | 33.1 | 39.3 | 58.3 | 112 | 152 | 37.6 | 113 | 101 | 113 | 57.7 | 94.4 | 161 | 121 | 57.9
N#CC[C@H](C1CCCC1)n1cc(-c2ncnc3[nH]ccc23)cn1 [ruxolitinib] + COc1cc2ncnc(Nc3ccc(Oc4ccccc4)cc3)c2cc1OC [SrcI1] (first compound 1 µM, partner dose 2 µM) | 47.2 | 146 | 145 | 148 | 176 | 14.9 | 108 | 60.1 | 42.2 | 106 | 96.1 | 36.3 | 106 | 80.2 | 89.8 | 122
Cc1ccc(Nc2nccc(N(C)c3ccc4c(C)n(C)nc4c3)n2)cc1S(N)(=O)=O [Pazopanib] + COc1ccc(-c2ccc3c(N4CCOCC4)nc(N4C[C@@H](C)O[C@@H](C)C4)nc3n2)cc1CO [KU0063794] (first compound 0.4 µM, partner dose 0.02 µM) | 178 | 63.2 | 242 | 123 | 129 | 142 | 29.4 | 41.5 | 141 | 69.8 | 72.9 | 180 | 91.1 | 83.8 | 111 | 48.3
O=C(/C=C/c1cccnc1)NCCCCC1CCN(C(=O)c2ccccc2)CC1 + Cc1ccc(NC(=O)c2cccc(N(C)C)c2)cc1NC(=O)c1ccc(O)cc1 [ZM336372] (first compound 0.01 µM, partner dose 2 µM) | 931 | 49.8 | 143 | 76.9 | 168 | 780 | 83.9 | 60.6 | 114 | 444 | 222 | 48.2 | 210 | 61.5 | 264 | 65.7
COc1cc([C@@H]2c3cc4c(cc3[C@@H](O[C@@H]3O[C@@H]5CO[C@@H](C)O[C@H]5[C@H](O)[C@H]3O)[C@H]3COC(=O)[C@H]23)OCO4)cc(OC)c1O [etoposide] + Cc1cc([N+](=O)[O-])ccc1NS(=O)(=O)c1cc(Cl)ccc1Cl [FH535] (first compound 0.02 µM, partner dose 1 µM) | 197 | 103 | 76.7 | 93 | 79.3 | 98.4 | 162 | 82.2 | 63.1 | 164 | 118 | 117 | 83.4 | 66.7 | 99.3 | 85.4
Cc1ccc(Nc2nccc(N(C)c3ccc4c(C)n(C)nc4c3)n2)cc1S(N)(=O)=O [Pazopanib] + CCc1ccc(CCOc2ccc(CC3SC(=O)NC3=O)cc2)nc1 [pioglitazone] (first compound 0.4 µM, partner dose 2 µM) | 172 | 28.8 | 72.5 | 69.5 | 148 | 54.7 | 98.4 | 94.4 | 143 | 144 | 85.1 | 82.4 | 104 | 83.5 | 106 | 48.2
COc1cc([C@@H]2c3cc4c(cc3[C@@H](O[C@@H]3O[C@@H]5CO[C@@H](C)O[C@H]5[C@H](O)[C@H]3O)[C@H]3COC(=O)[C@H]23)OCO4)cc(OC)c1O [etoposide] + COc1cc(Nc2ncc(F)c(Nc3ccc4c(n3)NC(=O)C(C)(C)O4)n2)cc(OC)c1OC [Tamatinib] (first compound 0.02 µM, partner dose 0.4 µM) | 233 | 128 | 110 | 195 | 74.4 | 92.1 | 67.5 | 222 | 150 | 286 | 108 | 176 | 151 | 66.2 | 71.8 | 516

Single records, as listed above. Order of values: cleaved PARP positive nuclei fraction (MZ2-MEL) [%]	cleaved PARP positive nuclei fraction (MeWo) [%]	cleaved PARP positive nuclei fraction (RPMI7951) [%]	cleaved PARP positive nuclei fraction (RVH-421) [%]	cleaved PARP positive nuclei fraction (SkMel28) [%]	cleaved PARP positive nuclei fraction (SkMel2) [%]	cleaved PARP positive nuclei fraction (SkMel30) [%]	cleaved PARP positive nuclei fraction (SkMel5) [%]	cleaved PARP positive nuclei fraction (UACC257) [%]	cleaved PARP positive nuclei fraction (UACC62) [%]	cleaved PARP positive nuclei fraction (WM115) [%]	cleaved PARP positive nuclei fraction (WM1716) [%]	cleaved PARP positive nuclei fraction (WM1745) [%]	cleaved PARP positive nuclei fraction (WM3526) [%]	cleaved PARP positive nuclei fraction (WM3619) [%]	cleaved PARP positive nuclei fraction (WM451Lu) [%]
CC[C@]1(O)C[C@H]2CN(CCc3c([nH]c4ccccc34)[C@@](C(=O)OC)(c3cc4c(cc3OC)N(C=O)[C@H]3[C@@](O)(C(=O)OC)[C@H](OC(C)=O)[C@]5(CC)C=CCN6CC[C@]43[C@@H]65)C2)C1 [vincristine] + N#Cc1c(O)c2c(-c3ccc(-c4ccccc4O)cc3)csc2[nH]c1=O [A769662] (first compound 0.0001 µM, partner dose 2 µM) as listed: 139	206	115	176	147	87.7	99.8	91.9	96.4	133	1220	101	103	87.3	156	163
O=C(/C=C/c1cccnc1)NCCCCC1CCN(C(=O)c2ccccc2)CC1 + Cc1ccc(NC(=O)c2cccc(N(C)C)c2)cc1NC(=O)c1ccc(O)cc1 [ZM336372] (first compound 0.01 µM, partner dose 2 µM) as listed: 931	49.8	143	76.9	168	780	83.9	60.6	114	444	222	48.2	210	61.5	264	65.7

Source: the supplement of paper PMC4604168 (melanoma cell lines)
